Values of other authors, collected in patent US20180271924A1, “COMPOUND AND METHOD FOR REDUCING INFLAMMATION, PAIN, ALLERGY, FLU AND COLD SYMPTOMS” (priority 2018, published 2018).
At least one structure is not confirmed: it was looked up by name or label, or the drawing left a doubt. Some entries share one result that the patent states for a list of compounds.

The chains behind the UniProt entries cited, without tags or fusion partners. Where a name states a change or a piece, a line headed by the entry shows the natural chain unless it says otherwise.
UniProt P47748: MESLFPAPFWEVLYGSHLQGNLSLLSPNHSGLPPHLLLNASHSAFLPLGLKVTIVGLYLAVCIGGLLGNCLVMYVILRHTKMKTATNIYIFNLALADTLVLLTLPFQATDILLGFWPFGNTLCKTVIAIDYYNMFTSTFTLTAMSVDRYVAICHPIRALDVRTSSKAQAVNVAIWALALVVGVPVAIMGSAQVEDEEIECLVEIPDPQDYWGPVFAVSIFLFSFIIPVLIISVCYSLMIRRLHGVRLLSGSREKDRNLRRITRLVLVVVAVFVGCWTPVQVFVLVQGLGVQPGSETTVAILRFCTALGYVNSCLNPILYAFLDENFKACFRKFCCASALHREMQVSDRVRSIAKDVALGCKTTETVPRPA
UniProt P41144: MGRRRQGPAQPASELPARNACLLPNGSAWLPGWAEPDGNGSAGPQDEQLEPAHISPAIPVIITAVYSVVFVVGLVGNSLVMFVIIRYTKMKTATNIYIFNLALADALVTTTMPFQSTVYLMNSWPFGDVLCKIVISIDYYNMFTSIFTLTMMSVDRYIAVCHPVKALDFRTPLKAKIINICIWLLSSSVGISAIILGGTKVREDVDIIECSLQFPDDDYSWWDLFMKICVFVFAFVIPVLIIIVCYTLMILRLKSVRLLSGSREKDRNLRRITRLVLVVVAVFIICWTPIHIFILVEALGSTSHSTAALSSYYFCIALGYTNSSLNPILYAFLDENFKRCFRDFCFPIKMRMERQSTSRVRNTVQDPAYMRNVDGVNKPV

Tests used:
[1] = tested on: mu-, delta- and kappa-opioid binding sites
ORL1-binding sites = ORL1-binding sites (Cavia porcellus, UniProt P47748)
opioid receptors = conditions: antagonised by naloxone
[2] = biological target: T1, kappa-opioid binding sites (Cavia porcellus, UniProt P41144)
T1 construct: from tissue; host or cells: guinea pig brain homogenate

SMILES	affinity for preferred (mu) site greater than for another opioid site (mu-opioid binding sites)	affinity (mu-opioid binding sites; corresponds to K value)	opioid binding (words) [1]	affinity for ORL1-binding sites (words) (ORL1-binding sites)	effect on electrically-induced contractions (opioid receptors)	affinity [2]	relative kappa-affinity [2]
C/C=C1/CN2[C@H]3Cc4c([nH]c5ccccc45)[C@@H]2C[C@@H]1[C@]3(CO)C(=O)OC [akuammidine]	less than 10 fold	1.7 mM⁻¹	low affinity	little affinity	inhibited the electrically-induced contractions	–	–
C/C=C1/CN2CC[C@]34C(=C(C(=O)OC)[C@H]1C[C@H]23)Nc1ccccc14 [akuammicine]	–	–	low affinity	–	inhibited the electrically-induced contractions	5.3 mM⁻¹	0.86
C/C=C1/CN2CC[C@@]34c5cc(O)ccc5N(C)[C@]35OC[C@@]4(C(=O)OC)[C@H]1C[C@H]25 [akuammine]	less than 10 fold	–	–	–	–	–	–
